Data taken from article PMC7236970 (Clinical Epigenetics, 2020).

Key:
Acetyl α-tubulin = experiment: Western blot of α-tubulin acetylation in K-562 cells; assay type: cell-based; conditions: Homo sapiens, K562, 24 h, western blot quantification, read-out: EC50 half-maximal acetylation of α-tubulin
Method: (§1) Cells were lyzed in 10% (v/v) Mammalian Protein Extraction Reagent solution (MPER®; Thermofisher, Erembodegen, Belgium) supplemented with 1× protease inhibitor cocktail (Complete EDTA-free, Roche) according to the manufacturer’s instructions. Histone enrichment was performed in acidic conditions as previously described. The protein concentration was determined using the Bradford assay (BioRad).

Acetyl histone H4 = experiment: Western blot of histone H4 acetylation in K-562 cells; assay type: cell-based; conditions: Homo sapiens, K562, 24 h, western blot quantification, read-out: EC50 half-maximal acetylation of histone H4
Method: as §1

With `O=C(CCCCCCC(=O)Nc1ccccc1)NO` [SAHA, suberoylanilide hydroxamic acid, reference compound] the EC50 (Acetyl α-tubulin) was 1900 ± 800 nM and the EC50 (Acetyl histone H4) was 2600 ± 200 nM.
